The supplement of paper PMC10470496
Structures can show the parent of a compound that is named as a salt. Some of the results follow. Single values are uncertain, as repeats are few or missing.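 The three strains are clinical Candida auris isolates from the CDC resistance isolate bank, from clades III, IV and I, grown in RPMI-1640 at 35°C. Growth is background-corrected OD600 relative to vehicle-only wells on the same plate; a hit meant over 50% inhibition in at least two strains plus a plate-corrected B-score above 0.1.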

Legend:
Assay in all cases: growth relative to vehicle control (OD600 ratio) (fraction); higher = less inhibition
Conditions in all cases: 24 h
C. auris AR-384 = tested on: C. auris AR-384
C. auris AR-386 = tested on: C. auris AR-386
C. auris AR-387 = tested on: C. auris AR-387

Row | Compound | growth (C. auris AR-384; 1 µM) | growth (C. auris AR-384; 10 µM) | growth (C. auris AR-386; 1 µM) | growth (C. auris AR-386; 10 µM) | growth (C. auris AR-387; 1 µM) | growth (C. auris AR-387; 10 µM)
1 | CN(C)CCC(c1ccc(Cl)cc1)c1ccccn1 (stereo not given) [Chlorpheniramine Maleate] | 0.72 | 0.83 | 1.02 | 0.83 | 0.69 | 0.82
2 | O=S(=O)(O)CCS [Mesna] | 1.02 | 0.83 | 0.69 | 0.85 | 1.25 | 0.85
3 | Clc1ccc(C(Cn2ccnc2)OCc2ccc(Sc3ccccc3)cc2)c(Cl)c1 (stereo not given) [Fenticonazole Nitrate] | 0.86 | 0.38 | 1.26 | 0.79 | 0.45 | 0.21
4 | CN1CCN(CCOc2cc(OC3CCOCC3)c3c(Nc4c(Cl)ccc5c4OCO5)ncnc3c2)CC1 [Saracatinib (AZD0530)] | 0.75 | 0.58 | 0.58 | 0.77 | 0.65 | 0.77
5 | CCC[C@@H]1C[C@@H](C(=O)N[C@@H]([C@H]2O[C@H](SC)[C@H](O)[C@@H](O)[C@H]2O)[C@H](C)Cl)N(C)C1 [Clindamycin HCl] | 1.02 | 1.11 | 1.17 | 1.48 | 1.22 | 1.49
6 | CNCCC=C1c2ccccc2CCc2ccccc21 [Nortriptyline hydrochloride] | 1.18 | 1.2 | 1.24 | 1.03 | 0.88 | 1.16
7 | CC[C@H]1OC(=O)C[C@@H](O)[C@H](C)[C@@H](O[C@@H]2O[C@H](C)[C@@H](O[C@H]3C[C@@](C)(O)[C@@H](O)[C@H](C)O3)[C@H](N(C)C)[C@H]2O)[C@@H](CC=O)C[C@@H](C)C(=O)/C=C/C(C)=C/[C@@H]1CO[C@@H]1O[C@H](C)[C@@H](O)[C@@H](OC)[C@H]1OC [Tylosin tartrate] | 0.69 | 0.99 | 1.14 | 1.01 | 0.98 | 0.61
8 | Cn1c(=O)c2[nH]cnc2n(C)c1=O [Aminophylline] | 0.97 | 0.83 | 0.67 | 0.81 | 0.91 | 0.99
9 | O=C1O[C@H]([C@@H](O)CO)C([O-])=C1O.[Na+] [Sodium ascorbate] | 1.02 | 1.08 | 1.03 | 1.18 | 0.93 | 0.96
10 | CN[C@@H]1[C@@H](O)[C@@H](O[C@@H]2[C@@H](O)[C@H](O[C@H]3O[C@H](CN)[C@@H](O)[C@H](O)[C@H]3O)[C@@H](N)C[C@H]2NC(=O)[C@@H](O)CN)OC[C@]1(C)O [Isepamicin Sulphate] | 0.89 | 0.73 | 0.51 | 0.68 | 0.63 | 0.83
11 | O=C(O)c1cc(=O)[nH]c(=O)[nH]1 [Orotic acid (6-Carboxyuracil)] | 0.84 | 0.9 | 0.91 | 0.63 | 0.93 | 0.94
12 | CC1(C)S[C@@H]2[C@H](NC(=O)COc3ccccc3)C(=O)N2[C@H]1C(=O)O [Penicillin V potassium salt] | 0.93 | 0.88 | 0.81 | 0.78 | 1.07 | 0.93
13 | S=C(NCc1ccc2c(c1)OCO2)N1CCN(c2ncnc3c2oc2ccccc23)CC1 [Amuvatinib (MP-470)] | 0.77 | 0.51 | 0.51 | 1.02 | 0.69 | 0.72
14 | CC(=O)c1cc2c(o1)C(=O)c1ccccc1C2=O [Napabucasin] | 1.17 | 1.01 | 0.93 | 0.59 | 0.81 | 0.41
15 | CC(C)[C@H]1CC[C@H](C(=O)N[C@H](Cc2ccccc2)C(=O)O)CC1 [Nateglinide] | 0.65 | 0.92 | 0.86 | 0.63 | 0.71 | 0.71
16 | Nc1nc2ccc(OC(F)(F)F)cc2s1 [Riluzole] | 0.97 | 1.06 | 1.3 | 1.16 | 0.87 | 0.81
17 | CCC[C@H](N[C@@H](C)C(=O)N1[C@H](C(=O)O)C[C@@H]2CCCC[C@@H]21)C(=O)OCC [Perindopril Erbumine] | 1.19 | 1.18 | 1.02 | 1.23 | 1.01 | 0.96
18 | C#C[C@]1(O)CC[C@H]2[C@@H]3CCC4=CC(=O)CC[C@@H]4[C@H]3C(=C)C[C@@]21CC [Etonogestrel] | 0.73 | 1.03 | 0.75 | 0.92 | 0.65 | 0.83
19 | COc1ccc(CNc2nc(N3CCC[C@H]3CO)ncc2C(=O)NCc2ncccn2)cc1Cl [Avanafil] | 0.97 | 0.77 | 0.8 | 0.51 | 0.82 | 1.12
20 | Nc1nc(CC(=O)Nc2ccc(CCNC[C@H](O)c3ccccc3)cc2)cs1 [Mirabegron] | 0.76 | 0.92 | 0.87 | 0.67 | 0.66 | 1.11

Row | Compound | growth (C. auris AR-384; 1 µM) | growth (C. auris AR-384; 10 µM) | growth (C. auris AR-386; 1 µM) | growth (C. auris AR-386; 10 µM) | growth (C. auris AR-387; 1 µM) | growth (C. auris AR-387; 10 µM)
21 | CC(C(=O)O)c1ccc2c(c1)[nH]c1ccc(Cl)cc12 (stereo not given) [Carprofen] | 0.75 | 0.74 | 0.78 | 0.8 | 0.75 | 0.69
22 | CCOC(=O)c1ccc(C#Cc2ccc3c(c2)C(C)(C)CCS3)nc1 [Tazarotene] | 1.34 | 1.14 | 0.98 | 0.98 | 0.97 | 1
23 | CCC(=O)NCC[C@@H]1CCc2ccc3c(c21)CCO3 [Ramelteon] | 0.69 | 0.53 | 0.66 | 0.63 | 0.78 | 0.77
24 | O=C(O)c1cc(=O)c2ccccc2o1 [Chromocarb] | 0.84 | 0.66 | 0.84 | 0.57 | 0.56 | 0.56
25 | Cc1oncc1C(=O)Nc1ccc(C(F)(F)F)cc1 [Leflunomide] | 0.71 | 1 | 0.64 | 0.89 | 0.78 | 0.94
26 | CCN(CC)C(=O)N1CCN(C)CC1 [Diethylcarbamazine citrate] | 0.9 | 0.72 | 0.99 | 0.63 | 0.62 | 0.68
27 | C[C@@H](O)[C@@H]1NC(=O)[C@H](CCCCN)NC(=O)[C@@H](Cc2c[nH]c3ccccc23)NC(=O)[C@H](Cc2ccccc2)NC(=O)[C@@H](NC(=O)[C@H](N)Cc2ccccc2)CSSC[C@@H](C(=O)N[C@H](CO)[C@@H](C)O)NC1=O [Octreotide Acetate] | 0.86 | 0.39 | 0.62 | 0.77 | 0.95 | 0.72
28 | CC(C)(C(=O)O)c1ccc(C(O)CCCN2CCC(C(O)(c3ccccc3)c3ccccc3)CC2)cc1 (stereo not given) [Fexofenadine HCl] | 0.9 | 0.86 | 0.57 | 0.68 | 0.83 | 0.87
29 | C=C[C@]1(C)C[C@@H](OC(=O)CS[C@@H]2C[C@H]3CC[C@@H](C2)N3C)[C@]2(C)[C@H](C)CC[C@]3(CCC(=O)[C@H]32)[C@@H](C)[C@@H]1O [Retapamulin] | 0.87 | 0.65 | 0.75 | 0.78 | 0.8 | 0.64
30 | CC(C)[C@H](O)C(=O)N[C@@H](C)C(=O)N[C@@H]1C(=O)N(C)CCc2ccccc21 | 1.33 | 1.16 | 1.25 | 0.84 | 0.71 | 1.16
31 | COc1cc(C(=O)NC2CCCNC2)cc(OC)c1OC (stereo not given) [Troxipide] | 0.84 | 0.95 | 0.83 | 0.77 | 1.02 | 0.91
32 | CCN(CC)CC#CCOC(=O)C(O)(c1ccccc1)C1CCCCC1 (stereo not given) [Oxybutynin chloride] | 0.81 | 0.85 | 0.67 | 0.84 | 0.77 | 0.8
33 | Cc1cc(C)cc(OCC2CNC(=O)O2)c1 (stereo not given) [Metaxalone] | 1.08 | 1.08 | 1.46 | 0.95 | 0.91 | 0.96
34 | CCn1cc(C(=O)O)c(=O)c2cc(F)c(N3CCN(C)CC3)cc21 [Pefloxacin Mesylate Dihydrate] | 0.77 | 0.9 | 0.86 | 0.88 | 1.03 | 0.81
35 | Cc1nc(C(=O)NCC(=O)O)c(O)c2ccc(Oc3ccccc3)cc12 [Roxadustat (FG-4592)] | 0.99 | 0.64 | 0.53 | 0.69 | 0.73 | 0.75
36 | CCOC(=O)C1=C(C)NC(C)=C(C(=O)OC)C1c1cccc([N+](=O)[O-])c1 (stereo not given) [Nitrendipine] | 0.91 | 1.13 | 1.13 | 0.71 | 0.59 | 0.84
37 | FC(F)(F)C(Cl)Br (stereo not given) [Halothane] | 1.13 | 1.42 | 0.89 | 1.2 | 0.97 | 1.21
38 | C[C@@H]1CC(=O)NN=C1c1ccc(NN=C(C#N)C#N)cc1 [Levosimendan] | 1.2 | 1.26 | 1.39 | 1 | 1.39 | 1.12
39 | CC(C)=CCC/C(C)=C/CC/C(C)=C/CSc1ccccc1C(=O)O [Salirasib] | 1.27 | 0.71 | 0.95 | 0.65 | 0.8 | 1.25
40 | C[C@]12CC[C@@H]3c4ccc(O)cc4CC[C@H]3[C@@H]1C[C@@H](O)[C@@H]2O [Estriol] | 0.96 | 0.87 | 1 | 0.77 | 0.69 | 0.83

A run of entries from the list above, for reference:
Row | Compound | growth (C. auris AR-384; 1 µM) | growth (C. auris AR-384; 10 µM) | growth (C. auris AR-386; 1 µM) | growth (C. auris AR-386; 10 µM) | growth (C. auris AR-387; 1 µM) | growth (C. auris AR-387; 10 µM)
29 | C=C[C@]1(C)C[C@@H](OC(=O)CS[C@@H]2C[C@H]3CC[C@@H](C2)N3C)[C@]2(C)[C@H](C)CC[C@]3(CCC(=O)[C@H]32)[C@@H](C)[C@@H]1O [Retapamulin] | 0.87 | 0.65 | 0.75 | 0.78 | 0.8 | 0.64
30 | CC(C)[C@H](O)C(=O)N[C@@H](C)C(=O)N[C@@H]1C(=O)N(C)CCc2ccccc21 | 1.33 | 1.16 | 1.25 | 0.84 | 0.71 | 1.16
